Laboratory results taken from patent US20190024087.
For some assays here: Tags and fusion partners may be left off the protein sequences shown. For some assays here: The exact form of at least one protein or probe is not confirmed.

Chains of the proteins cited; added tags and fusions are not shown. Residues count along the entry.
UniProt O14793, 268-375: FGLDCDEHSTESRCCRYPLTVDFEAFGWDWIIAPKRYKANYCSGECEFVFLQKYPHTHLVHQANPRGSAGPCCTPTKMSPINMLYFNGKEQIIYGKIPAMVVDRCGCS

Legend:
[1] = target: Myostatin (GDF8, mature human) (Homo sapiens) (UniProt O14793); assay: filter binding; details: NapdU at all P (n) positions, 0.1 uM Z-block, purified recombinant protein, single-stranded DNA
[2] = target: T1, GDF11 (mature human) (Homo sapiens) (UniProt O95390); assay: filter binding; details: NapdU at all P (n) positions; 0.1 uM Z-block; purified recombinant protein; single-stranded DNA; variant of 12060-28_3
T1 sequence: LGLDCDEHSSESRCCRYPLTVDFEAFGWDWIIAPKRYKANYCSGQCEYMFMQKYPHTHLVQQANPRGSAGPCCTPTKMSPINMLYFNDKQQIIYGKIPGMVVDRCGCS

[3] = target: T1, GDF11 (mature human) (Homo sapiens); assay: binding assay; details: NapdU at all P (n) positions, purified recombinant protein, single-stranded DNA; for Kd: method not stated

Row | Sequence | Kd ([1]; variant of 12060-28_3) [µM] | Kd [1] [µM] | also measured
1 | CCCTGCGCCTTCGGACTTGATTTAAGTTTAGCCGCTTGCTCACATCACAA [12060-28_38] | > 0.32 | – | –
2 | CCCTGCGCCTTCGGACTTGCTTCAAGTTTAGCCGCTTGCTCACATCACAA [12060-209_3] | > 0.32 | – | Kd [2]: > 0.32 µM
3 | CCCTGCGCCTTCGGACTTGCTTTAAGTTTAGCCGCTCGCTCACATCACAA [12060-204_3] | > 0.32 | – | –
4 | CCCTGCGCCTTCGGACTTGCTTTAAGTTTAGCCGCTTGCTCACAACACAA [12060-300_3] | > 0.32 | – | –
5 | CCCTGCGCCTTCGGACTTGCTTTAAGTTTAGCCGCTTGCTCACATCACAA [12060-28_3] | – | > 0.32 | –
6 | CCCTGCGCCTTCGGACTTGCTTTAAGTTTAGCCGCTTGCTCACGTCACAA [12060-130_3] | > 0.32 | – | –
7 | CCCTGCGCCTTCGGACTTGCTTTAAGTTTAGCCGCTTGCTTACATCACAA [12060-116_3] | > 0.32 | – | –
8 | CCCTGCGCCTTCGGACTTGCTTTAAGTTTAGCCGCTTGTTCACATCACAA [12060-4_3] | > 0.32 | – | –
9 | CCCTGCGCCTTCGGACTTGCTTTACGTTTAGCCGCTTGCTCACATCACAA [12060-238_3] | > 0.32 | – | –
10 | CCCTGCGCCTTCGGACTTGCTTTAGGTTTAGCCGCTTGCTCACATCACAA [12060-28_40] | > 0.32 | – | –
11 | CCCTGCGCCTTCGGACTTGGTTTAAGTTTAGCCGCTTGCTCACATCACAA [12060-28_39] | > 0.32 | – | –
12 | CCCTGGTTGACAAGGTACTGGACTTGATTTACGTTTAGCCTCAAGCACAA [12058-386_3] | – | > 0.32 | –
13 | CCCTGTGAGACTTGATTTACGTTTAGCTGCTAACATGGGGAACCACACAA [12060-16_3] | – | > 0.32 | –
14 | CCCTGTGCCTTCGGACTTGCTTTAAGTTTAGCCGCTTGCTCACATCACAA [12060-32_3] | > 0.32 | – | –
15 | CTGTGAACTTGATTTAAGTTTAGGCACATACACCACTCCGGACGA [16139-198_3] | – | > 0.32 | –
16 | CTGTGACCTTCACCCGTGACTTGGTTTACGTTTAGCGGGTAGGTCACAA [16139-178_3] | – | > 0.32 | –

Row | Sequence | Kd ([1]; variant of 12060-28_3) [µM] | Kd [1] [µM] | also measured
17 | CTGTGACTAATGTGACCGGAGACTTGCTTTACGTTTAGCGACCTGCACAA [16139-12_3] | – | > 0.32 | –
18 | CTGTGAGTGTACCTCGCGCTTGATTTACGTTTAGGCGAGGCAGGCCACAA [16139-30_3] | – | > 0.32 | –
19 | CTGTGCGTACTGACTTGATTTACGTTTTAGCGATGCATGCTTGAGCCACAA [16139-122_3] | – | > 0.32 | –
20 | CTGTGCTAAGACTGCGGACTTGATTTAGGTTTAGCCGCAAGAAGTCACAA [16139-37_3] | – | > 0.32 | –
21 | CTGTGGACTGAGTTGGATGGGACTTGATTTAAGTTTAGCCCGCAACACAA [16139-3_3] | – | > 0.32 | –
22 | CTGTGGTTAACGACGACTTGATTTACGTTTAGCGGCACCTTACACCACAA [16139-19_3] | – | > 0.32 | –
23 | GACTTGCTTTAAGTTTAGCC [12060-28_37 (20-mer)] | – | – | binding result ([3]; 20-mer binds, less well than 21-mer, variant of 12060-28_3): binds
24 | GCCGCCTTCGGTACTTGACTTTAAGTTTGTAGGCCAGCGTTGCTCACAT [Table 8 clone SEQ 64] | – | – | Kd ([3]; sequence shown without flanks): > 0.32 µM
25 | GCCGCCTTTCGGACTTGACTTTAAGTTTACGCTCGACTTGACTCCATCAT [Table 8 clone SEQ 61] | – | – | Kd ([3]; sequence shown without flanks): > 0.32 µM
26 | GCGCCTTCGGACTTGCTTAAAGTTTAGCCGCTTGTT [Table 8 clone SEQ 69] | – | – | Kd ([3]; sequence shown without flanks): > 0.32 µM
27 | GGACTTGCTTTAAGTTTAGCC [12060-28_36 (21-mer)] | – | – | Kd ([3]; truncation, variant of 12060-28_3): 0.000443 µM
28 | GTCGCCTCGGACTGCTTTAAGTTAGCCGTCCTACTACCA [Table 8 clone SEQ 60] | – | – | Kd ([3]; sequence shown without flanks): > 0.32 µM
29 | GTCGCTACGGACTTGATTTAACGTTTTAGCCGCTTACATGGGAACCA [Table 8 clone SEQ 67] | – | – | Kd ([3]; sequence shown without flanks): > 0.32 µM
30 | GTGCCTTCCGGACTTGCCTTTAACGTTTAGCCTAGCTTGCTCACAT [Table 8 clone SEQ 63] | – | – | Kd ([3]; sequence shown without flanks): > 0.32 µM
31 | GTGCTAGGACTTGACTTTAACGTTTAGCTGCTTACATGGAACTC [Table 8 clone SEQ 72] | – | – | Kd ([3]; sequence shown without flanks): > 0.32 µM
